The supplement of paper PMC3334620
In all, about 33,000 sequences were measured (“E-score (-0.5 to 0.5)”: median about -0.0034, highest 2% from about 0.25 on). This is one part of the list.

Target: T1, Yap3 (UniProt P38749)
T1 sequence: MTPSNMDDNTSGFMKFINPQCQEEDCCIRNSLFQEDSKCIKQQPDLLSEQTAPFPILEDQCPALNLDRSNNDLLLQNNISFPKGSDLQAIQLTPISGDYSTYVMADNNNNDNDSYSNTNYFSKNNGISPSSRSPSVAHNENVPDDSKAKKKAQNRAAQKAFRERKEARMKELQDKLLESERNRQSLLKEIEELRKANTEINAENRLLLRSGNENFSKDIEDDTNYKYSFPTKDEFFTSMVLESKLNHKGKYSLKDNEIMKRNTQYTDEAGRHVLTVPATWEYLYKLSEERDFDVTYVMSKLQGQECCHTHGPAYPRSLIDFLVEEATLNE
Assay: PBM E-score (8-mer binding enrichment) (E-score (-0.5 to 0.5)); higher = stronger / more preferred TF binding
Conditions: protein concentration: 100 nM; construct: GST-full length
Outline: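 Masliner-normalised scans of fluorescent anti-GST signal were the basis for scoring. That signal came from GST-tagged yeast transcription factors applied at about 100-200 nM to double-stranded universal all-10-mer Agilent arrays on fresh or once-stripped slides. Each ungapped eight-base word, pooled with its reverse complement, received an E-score from the Universal PBM Analysis Suite.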

| Sequence | PBM E-score |
| --- | --- |
| CATTACGG | 0.156 |
| ACGTCTAA | 0.0661 |
| CCTTTTCG | 0.0262 |
| CCGTTCAG | -0.1 |
| AGTTGCCG | 0.0305 |
| CTTAGGCC | -0.147 |
| ATCTAAAG | -0.00967 |
| AATTATTA | 0.311 |
| CTCCCCAA | -0.176 |
| GTTCCCAA | -0.17 |
| CCGATATA | 0.0195 |
| CTCCTCAA | -0.231 |
| CGCTAGCC | -0.235 |
| CCAGTGCC | -0.197 |
| GACCGGCC | -0.251 |
| AGCCGTAT | -0.0387 |
| ATTTTGCA | 0.183 |
| ACGTAGTC | -0.262 |
| CCCGCCGG | -0.345 |
| CAATTAAC | 0.0563 |
| GAGGCAGA | -0.184 |
| AATCAAAA | 0.222 |
| CCGCGCAC | -0.0165 |
| AAAAGCCG | -0.00115 |
| AAATTAGT | 0.283 |

| Sequence | PBM E-score |
| --- | --- |
| ACGCAGCC | -0.0589 |
| GAGTGCAC | -0.108 |
| AATTTTCC | 0.202 |
| AGTGAAGA | -0.135 |
| AGAGATAT | 0.0503 |
| AGCGGAAG | 0.0705 |
| GACAACAA | 0.209 |
| CTGTTGTA | 0.122 |
| AAAGAACA | 0.216 |
| TAACTTCA | 0.181 |
| CAGATTAG | -0.066 |
| AGCCATGA | -0.0317 |
| AACATTTA | 0.14 |
| GGGAGCCC | -0.383 |
| GCCGGCGA | -0.103 |
| CGGGAAAA | 0.0156 |
| CCTATAAA | -0.16 |
| GTGTTCGA | -0.00112 |
| CGTTTTCA | 0.0762 |
| ATAAAATA | 0.298 |
| CCGCCCCG | 0.222 |
| AAACGTCC | -0.0184 |
| CGCTAGTA | 0.0464 |
| CTGGTGGC | -0.19 |
| GATTGGGA | -0.114 |

Retrieved one by one from the list above, 5 records:

| Sequence | PBM E-score |
| --- | --- |
| AGCCATGA | -0.0317 |
| CGTTTTCA | 0.0762 |
| AGAGATAT | 0.0503 |
| GCCGGCGA | -0.103 |
| GGGAGCCC | -0.383 |

Next part:

| Sequence | PBM E-score |
| --- | --- |
| CTCATACC | 0.0801 |
| GATGTCGC | -0.0575 |
| ATTATGAA | 0.261 |
| AGTCGCAT | -0.104 |
| GCTCAAAC | 0.0246 |
| GCGAGCAC | -0.153 |
| ACTTCTTG | -0.044 |
| AATCTCAG | -0.0162 |
| GCTTCACA | -0.0453 |
| GAACGGTA | 0.083 |
| GTTCCGCA | 0.081 |
| AGGTGGAC | -0.187 |
| GGTCCAGA | -0.0784 |
| CGTGAATC | 0.113 |
| CCAGTACA | 0.0428 |
| AGGGGTTC | -0.222 |
| AATTGGCA | 0.0303 |
| ATCTTGAC | -0.13 |
| CGCTCACG | 0.00332 |
| ACGATGCG | -0.041 |
| AAGTAGAT | 0.093 |
| CGTCTACC | -0.0135 |
| GCGGCTAC | -0.104 |
| AACGTACG | 0.0991 |
| ACGTGAAT | 0.163 |

| Sequence | PBM E-score |
| --- | --- |
| ACTGCCTG | -0.0152 |
| CCAGTGAA | -0.198 |
| GACGCCTA | -0.0664 |
| CCGCGGCG | -0.0133 |
| GAAGGTAC | 0.0436 |
| AGGTCGTG | -0.106 |
| ACTTCATC | 0.0677 |
| TCCCCAAA | 0.0308 |
| CTGATCGA | -0.239 |
| AATACAGC | 0.073 |
| CGATTGTC | -0.0792 |
| CAAAAGCC | -0.112 |
| CAGCGCAG | -0.115 |
| CACGCTGA | 0.0338 |
| AAGACTCG | -0.08 |
| CAAGACCC | -0.155 |
| AAAGCCTT | -0.129 |
| CTGCATAA | 0.157 |
| ATTCTTCG | -0.0286 |
| GTTTGGTA | 0.214 |
| CCTCACAG | -0.0363 |
| GAGGCCAC | -0.223 |
| CGTGATAA | 0.0442 |
| AGTTCACC | 0.0278 |
| CAATGATA | 0.137 |

| Sequence | PBM E-score |
| --- | --- |
| AGGCCACA | -0.191 |
| ATCCCTCG | -0.0303 |
| GTGGCCCA | -0.152 |
| AGGTAATA | 0.294 |
| ACGTTGAT | 0.155 |
| CTGGCGGC | -0.142 |
| CAAGACGA | -0.00312 |
| AGTGTGCA | 0.0195 |
| GTAGCGTA | 0.0978 |
| ATCGCTCA | 0.0478 |
| ATTCGATG | 0.0289 |
| CGATGCAA | -0.116 |
| CCGACCGG | -0.178 |
| ATGACATA | 0.243 |
| CATAGGTA | 0.00106 |
| ACAGCCCA | -0.0781 |
| ATTTGAGC | 0.108 |
| AAGAACAC | 0.147 |
| AAGGCTGA | 0.00347 |
| AAATTGTG | 0.131 |
| AGCACAAC | 0.155 |
| CTGGTTTC | 0.0379 |
| ACCGAACT | 0.00037 |
| CTCTTATA | 0.21 |
| AATTATCT | 0.237 |

Some of the entries so far, as tab-separated lines:
Sequence	PBM E-score
ATCCCTCG	-0.0303
AGTGTGCA	0.0195
CGATGCAA	-0.116
ACAGCCCA	-0.0781
CTCTTATA	0.21
AATTATCT	0.237

Quoted from the listing.
Under PBM E-score, AGCACAAC reads 0.155
Under PBM E-score, CGATGCAA reads -0.116

Additional records follow:

| Sequence | PBM E-score |
| --- | --- |
| AGATGCAG | -0.0481 |
| GAGAACCC | -0.212 |
| ATACTTTG | 0.136 |
| GGTCGTGA | -0.0991 |
| TCAATGGA | 0.0342 |
| AAAAACAC | 0.204 |
| ACCTGACC | -0.0748 |
| GACCCCAC | -0.111 |
| CAGTGCAC | -0.0136 |
| CGGCACGC | -0.15 |
| ATATGGAT | 0.184 |
| ACCTTGCT | -0.146 |
| ATCCACTG | 0.0249 |
| ACAGCTAG | -0.0504 |
| TAGCGGAA | -0.00131 |
| AAAGTCCC | -0.155 |
| CAAAGCAC | 0.0239 |
| CTGTCTTC | -0.0302 |
| ACTTCGGG | -0.109 |
| GGGGATCA | -0.305 |
| GATAGAGC | 0.00266 |
| CGTGGGAA | -0.134 |
| GTATTAAC | 0.0508 |
| ACTTTACG | 0.115 |
| AAAGTTCA | 0.0821 |

| Sequence | PBM E-score |
| --- | --- |
| TGCCAAAA | 0.1 |
| AAATTATT | 0.275 |
| AAGTAGAC | -0.0979 |
| CCCGAATA | 0.0745 |
| ACACAGGG | -0.00095 |
| CCAATTGC | -0.0704 |
| GGGCTTGA | -0.17 |
| GCCGAACA | 0.0458 |
| CCAACTAG | -0.0451 |
| TTCAACAA | 0.0699 |
| TGCTGTAA | -0.0361 |
| AACCTGAA | -0.188 |
| CATGGCAA | 0.0727 |
| GACATTAC | 0.0986 |
| AGGCCGAA | -0.192 |
| GGCGATAA | 0.0308 |
| CACATCCC | -0.125 |
| ATGATGAA | 0.253 |
| AGAAGCAG | 0.0729 |
| CATAGTGG | 0.109 |
| TATCGCGA | 0.19 |
| ACCAACTG | 0.0875 |
